Test results from publication doi:10.1101/2022.04.29.489008.

Tests used:
[1] = target: MpSETA fused with the GAL4 DNA-binding domain (Marchantia polymorpha); experiment: two-hybrid
[2] = target: MpSETA fused with the GAL4 DNA-binding domain (Marchantia polymorpha); experiment: two-hybrid; remark: listed apart in the source
[3] = target: MpSETA-nYFP (Marchantia polymorpha); experiment: split reporter

## MpICE2 fused with the GAL4 activation domain (from UniProt A0A2R6W565)
[1]
  binding: binds

B1: AtICE1 fused with the GAL4 activation domain (protein, UniProt Q9LSE2 1-494)
chain: MGLDGNNGGGVWLNGGGGEREENEEGSWGRNQEDGSSQFKPMLEGDWFSSNQPHPQDLQMLQNQPDFRYFGGFPFNPNDNLLLQHSIDSSSSCSPSQAFSLDPSQQNQFLSTNNNKGCLLNVPSSANPFDNAFEFGSESGFLNQIHAPISMGFGSLTQLGNRDLSSVPDFLSARSLLAPESNNNNTMLCGGFTAPLELEGFGSPANGGFVGNRAKVLKPLEVLASSGAQPTLFQKRAAMRQSSGSKMGNSESSGMRRFSDDGDMDETGIEVSGLNYESDEINESGKAAESVQIGGGGKGKKKGMPAKNLMAERRRRKKLNDRLYMLRSVVPKISKMDRASILGDAIDYLKELLQRINDLHNELESTPPGSLPPTSSSFHPLTPTPQTLSCRVKEELCPSSLPSPKGQQARVEVRLREGRAVNIHMFCGRRPGLLLATMKALDNLGLDVQQAVISCFNGFALDVFRAEQCQEGQEILPDQIKAVLFDTAGYAGMI
[2]
  binding: binds

B2: AtSCRM2 fused with the GAL4 activation domain (protein, UniProt Q9LPW3 1-450)
chain: MNSDGVWLDGSGESPEVNNGEAASWVRNPDEDWFNNPPPPQHTNQNDFRFNGGFPLNPSENLLLLLQQSIDSSSSSSPLLHPFTLDAASQQQQQQQQQQEQSFLATKACIVSLLNVPTINNNTFDDFGFDSGFLGQQFHGNHQSPNSMNFTGLNHSVPDFLPAPENSSGSCGLSPLFSNRAKVLKPLQVMASSGSQPTLFQKRAAMRQSSSSKMCNSESSSEMRKSSYEREIDDTSTGIIDISGLNYESDDHNTNNNKGKKKGMPAKNLMAERRRRKKLNDRLYMLRSVVPKISKMDRASILGDAIDYLKELLQRINDLHTELESTPPSSSSLHPLTPTPQTLSYRVKEELCPSSSLPSPKGQQPRVEVRLREGKAVNIHMFCGRRPGLLLSTMRALDNLGLDVQQAVISCFNGFALDVFRAEQCQEDHDVLPEQIKAVLLDTAGYAGLV
[2]
  binding: binds

B3: cYFP-AtICE1 (protein, UniProt Q9LSE2 1-494)
chain: B1 chain
[3]
  binding: binds

B4: cYFP-AtSCRM2 (protein, UniProt Q9LPW3 1-450)
chain: B2 chain
[3]
  binding: binds

Where two headings read alike, the source gives them in different places. No constants are given. Whether binding was seen depends on the method and setting. A result given as binding can be weak or reduced; the word gives no strength. For some assays here: Sequences can lack the tags named with a protein. For some assays here: In cells and extracts the contact can be indirect.
